PubChem BioAssay AID1259282 – Sanger Institute | 2017
Shown is a random part of 794 reagents tested. Over the whole deposit, 11 (1.4%) got an active call. 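Calls flag knock-downs that lower viability without drug; drug synergy appears only in the synergy scores; exposure time not stated.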 Unmarked entries are inactive. Not all columns of the deposit are shown. Not given: the amount of reagent, the time to read-out.

- Assay: 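siRNA screen across the kinome seeking drug combinations lethal to colorectal cancer cells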 (primary screen)
- Cell system: DIFI human colorectal cancer cell line
- Reagent: siRNA pool against human genes
- Challenge: anchor drug at a mild dose (BYL719 1 µM, cetuximab 5 µg/ml, trametinib 10 nM) or DMSO vehicle; exposure time not given
- Detection: 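Robust z-score and replicate-mean viability versus non-targeting pool without drug, plus a synergy score for each low-dose anchor drug (BYL719, cetuximab, trametinib)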
- Reading the numbers: robust z-score, knock-down alone: higher = more viable cells than typical knock-down
- Call rule: 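Essential when the robust z-score of the knock-down without drug falls below -3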
- Calls: active = essential (knock-down alone, z below -3); inactive = not essential

After knock-down of PDGFRA the results were robust z-score, knock-down alone 0.715.
After knock-down of MAP3K15, the record shows robust z-score, knock-down alone -0.392.
GCK scored robust z-score, knock-down alone -1.83.
EPHA4 showed robust z-score, knock-down alone -1.03.
After knock-down of MPP2 the results were robust z-score, knock-down alone -0.977.
Against MAPK15, the entry reads robust z-score, knock-down alone 0.715.
For NRK the deposit lists robust z-score, knock-down alone 0.32.
TTBK2 showed robust z-score, knock-down alone -0.202.
For PRKAR2A, the values are robust z-score, knock-down alone 0.715.
For CAMK1, the values are robust z-score, knock-down alone 0.382.
With knock-down of TAOK1, the record shows robust z-score, knock-down alone 0.567.
For SF3B1 the deposit lists robust z-score, knock-down alone -1.57.
For DIS3 the deposit lists robust z-score, knock-down alone 0.715.
Against MAGI3 the deposit lists robust z-score, knock-down alone 0.715.
For FRK, the values are robust z-score, knock-down alone 0.715.
For OBSCN, the values are robust z-score, knock-down alone 0.715.
Silencing of ADK gave: robust z-score, knock-down alone 0.715.
CSNK2A2 showed robust z-score, knock-down alone -0.857.
KCNH8 gave robust z-score, knock-down alone -3.15 (active).
Against TRIO the deposit lists robust z-score, knock-down alone 0.715.
Silencing of PAK3 resulted in: robust z-score, knock-down alone -0.0644.
Depletion of GSK3B gave: robust z-score, knock-down alone 0.715.
With knock-down of PRKD1 the results were robust z-score, knock-down alone 0.715.
With knock-down of FN3KRP the results were robust z-score, knock-down alone -1.12.
MST1R showed robust z-score, knock-down alone 0.715.
After knock-down of PHKB, the record shows robust z-score, knock-down alone 0.715.
With knock-down of FGFR2, the screen gave robust z-score, knock-down alone 0.715.
For AKT1, the values are robust z-score, knock-down alone -0.224.
MAPK6 showed robust z-score, knock-down alone -1.18.
Knock-down of BRD4 resulted in: robust z-score, knock-down alone -1.21.
With knock-down of MECOM, the screen gave robust z-score, knock-down alone 0.715.
EXOSC10 gave robust z-score, knock-down alone 0.0463.
After knock-down of MAP4K1 the results were robust z-score, knock-down alone 0.698.
With knock-down of DYRK3 the results were robust z-score, knock-down alone 0.122.
After knock-down of CIB2, the screen gave robust z-score, knock-down alone -0.64.
After knock-down of ATM the results were robust z-score, knock-down alone 0.148.

Records listed so far whose target name begins with G or g (2):
GCK — robust z-score, knock-down alone = -1.83
GSK3B — robust z-score, knock-down alone = 0.715
